Data reported in paper doi:10.1101/741033.
These are yes or no findings as the source states them, for the method shown. In cells and extracts the contact can be indirect. A result given as binding can be weak or reduced; the word gives no strength.

Key:
[1] = target: GFP-tagged GEXP10 (GEXP10-GFP) (P. falciparum 3D7) (UniProt Q8I2D9); assay: co-IP
[2] = target: GFP-tagged virulence complex assembly protein 1 (VCAP1-GFP) (P. falciparum 3D7) (UniProt Q8IEJ0); assay: co-IP

“membrane-associated histidine-rich protein 1 (MAHRP1), endogenous (from UniProt C0H5L9 1-249)” was tested, and the binding [1] was “binds” and the binding [2] was “binds”.
